Results deposited as PubChem BioAssay AID1259424 (University of Nebraska Medical Center, 2018)

- Assay: 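Find knockdowns that reproduce the expression shifts seen after KSR1 loss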 (primary screen)
- Cells: human HCT116 colon cancer cells
- Reagents: siRNA pool against human genes, 50 nM
- Measurement: 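Log2 levels of six mRNAs (branched-DNA multiplex), adjusted by two reference genes and the non-targeting median, then scored against the average KSR1 knockdown pattern as Pearson r and euclidean distance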
- Direction: mean correlation with KSR1 profile and KSR1 correlation: higher = expression change more like KSR1 knockdown; mean distance from KSR1 profile: higher = expression change less like KSR1 knockdown
The deposit covers about 14,000 reagents; this is a part drawn at random. 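Higher correlation or smaller distance means closer resemblance to KSR1 loss; control wells, including KSR1 knockdowns, recur on many plates.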 Not all columns of the deposit are shown. Not given: the time to read-out.

| gene | PubChem SID | mean correlation with KSR1 profile | mean distance from KSR1 profile | KSR1 correlation, replicate 1 |
| --- | --- | --- | --- | --- |
| LGALS14 (galectin 14) | SID364001492 | -0.27 | 1.69 | -0.209 |
| ASPSCR1 (ASPSCR1 tether for SLC2A4, UBX domain containing) | SID364002736 | -0.0162 | 2.78 | -0.113 |
| NKIRAS1 (NFKB inhibitor interacting Ras like 1) | SID364001616 | -0.123 | 3.12 | 0.00565 |
| ID3 (inhibitor of DNA binding 3) | SID363993371 | -0.0857 | 1.72 | 0.072 |
| IPO8 (importin 8) | SID363997202 | -0.605 | 2.28 | -0.4 |
| CD53 (CD53 molecule) | SID363991882 | -0.254 | 1.9 | -0.136 |
| HOXD8 (homeobox D8) | SID364001421 | -0.255 | 2.64 | -0.0537 |
| NXT2 (nuclear transport factor 2 like export factor 2) | SID364001189 | 0.691 | 2 | 0.625 |
| SYBU (syntabulin) | SID364000527 | 0.454 | 1.8 | 0.358 |
| DDX50 (DExD-box helicase 50) | SID364002706 | -0.484 | 2.76 | -0.692 |
| MAGED4B (MAGE family member D4B) | SID364003453 | 0.53 | 1.76 | 0.502 |
| TRIP12 (thyroid hormone receptor interactor 12) | SID363995237 | 0.198 | 1.64 | -0.101 |
| PANK2 (pantothenate kinase 2) | SID364003189 | 0.365 | 2.34 | 0.249 |
| CLCN3 (Cl-/H+ antiporter 3) | SID363993044 | -0.127 | 1.15 | 0.0991 |
| C1orf198 (chromosome 1 open reading frame 198) | SID364004180 | 0.292 | 2.18 | 0.236 |
| SERTAD3 (SERTA domain containing 3) | SID363998475 | 0.593 | 0.981 | 0.244 |

Next part; the last 3 above are carried over.
| gene | PubChem SID | mean correlation with KSR1 profile | mean distance from KSR1 profile | KSR1 correlation, replicate 1 |
| --- | --- | --- | --- | --- |
| CLCN3 (Cl-/H+ antiporter 3) | SID363993044 | -0.127 | 1.15 | 0.0991 |
| C1orf198 (chromosome 1 open reading frame 198) | SID364004180 | 0.292 | 2.18 | 0.236 |
| SERTAD3 (SERTA domain containing 3) | SID363998475 | 0.593 | 0.981 | 0.244 |
| SIRPD (signal regulatory protein delta) | SID364004914 | 0.173 | 1.35 | 0.207 |
| JUP (junction plakoglobin) | SID363993430 | 0.0368 | 1.79 | 0.0988 |
| SH2B2 (SH2B adaptor protein 2) | SID364001926 | 0.611 | 1.84 | 0.659 |
| ZP3 (zona pellucida glycoprotein 3) | SID363997857 | 0.323 | 1.23 | 0.326 |
| STK26 (serine/threonine kinase 26) | SID364000185 | -0.185 | 2.14 | -0.0127 |
| CACNA1C (calcium voltage-gated channel subunit alpha1 C) | SID363992016 | 0.0282 | 2.56 | -0.0437 |
| NLRP9 (NLR family pyrin domain containing 9) | SID364004883 | -0.509 | 1.97 | -0.781 |
| APP (amyloid beta precursor protein) | SID363991807 | -0.297 | 2.92 | -0.231 |
| STK32C (serine/threonine kinase 32C) | SID364004833 | 0.547 | 2.74 | 0.607 |
| OSTC (oligosaccharyltransferase complex non-catalytic subunit) | SID364002111 | -0.096 | 2.55 | -0.112 |
| AFP (alpha fetoprotein) | SID363992427 | -0.0428 | 1.29 | 0.0369 |
| PXK (PX domain containing serine/threonine kinase like) | SID364000515 | 0.188 | 1.8 | 0.467 |
| KPNB1 (karyopherin subunit beta 1) | SID363993463 | 0.247 | 1.29 | -0.117 |
| RAD51AP1 (RAD51 associated protein 1) | SID363997287 | -0.0249 | 2.27 | -0.22 |
| PCOLCE (procollagen C-endopeptidase enhancer) | SID363993762 | 0.749 | 1.09 | 0.796 |
| CTNNBIP1 (catenin beta interacting protein 1) | SID364001593 | 0.363 | 1.86 | 0.465 |
| TOP2B (DNA topoisomerase II beta) | SID363992365 | 0.145 | 1.64 | 0.0035 |
| MID2 (midline 2) | SID363998148 | -0.168 | 1.9 | -0.164 |
